PubChem BioAssay AID493246 | Drosophila RNAi Screening Center, 2011
The deposit covers about 21,000 reagents; this is a random part of those with a known target gene and a result. In the full data, 429 (2%) were called active. 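Values are raw and not normalised between plates; calls rest on per-plate z-scores that were not deposited.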 A number with no mark means an inactive call. A plus sign joins genes that one reagent is predicted to hit. No sequences are given here. The record does not give: the amount of reagent, the time to read-out.

Purpose: 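Genes fly cells need to grow and stay alive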 (primary screen)
System: Drosophila Kc and S2R+ cells
Knock-down reagent: long dsRNA against Drosophila genes
Measurement: 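Cell number per well after knock-down, printed as raw plate values; calls were based on per-plate z-scores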
Scale: Kc cell number and S2R+ cell number: higher = more cells remaining
Active means: 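Active when the per-plate z-score of cell number is 3 or more in the direction of fewer cells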

| Target gene | amplicon | Kc cell number, rep 1 | Kc cell number, rep 2 | S2R+ cell number, rep 1 | S2R+ cell number, rep 2 |
| --- | --- | --- | --- | --- | --- |
| Fic | DRSC03247 | 1.11e6 | 1.39e6 | 7.00e5 | 8.35e5 |
| pre-mod(mdg4)-AD + mod(mdg4) + pre-mod(mdg4)-X + 3 more | DRSC16328 | 1.48e6 | 1.48e6 | 1.01e6 | 1.11e6 |
| CG15537 | DRSC15073 | 1.71e6 | 1.69e6 | 1.09e6 | 1.15e6 |
| CG33543 | DRSC00384 | 1.43e6 | 1.50e6 | 1.02e6 | 1.24e6 |
| CG33543 | DRSC00385 | 1.45e6 | 1.53e6 | 1.06e6 | 1.21e6 |
| CG34238 | DRSC09040 | 1.40e6 | 1.43e6 | 1.12e6 | 1.21e6 |
| Panx | DRSC04563 | 1.52e6 | 1.61e6 | 1.27e6 | 3.55e5 |
| ND-15 | DRSC00311 | 1.00e6 | 1.32e6 | 2.91e5 | 3.89e5 |
| CG15549 | DRSC15087 | 1.55e6 | 1.55e6 | 1.05e6 | 1.18e6 |
| CaMKII | DRSC17214 | 5.17e5 | – | 8.60e5 | – |
| CG10086 | DRSC14183 | 1.53e6 | 1.68e6 | 1.13e6 | 1.22e6 |
| CG11436 | DRSC17783 | 5.71e5 | – | 8.04e5 | – |
| WDR79 | DRSC03159 | 1.28e6 | 1.47e6 | 4.24e5 | 4.10e5 |
| CG33096 | DRSC14440 | 1.62e6 | 1.59e6 | 1.20e6 | 1.22e6 |
| CG30487 | DRSC05377 | 1.57e6 | 1.53e6 | 1.05e6 | 1.26e6 |
| CG17816 | DRSC15277 | 1.38e6 | 1.37e6 | 1.05e6 | 1.21e6 |
| Srp68 | DRSC10475 | 1.48e6 | 1.53e6 | 1.21e6 | 1.17e6 |
| Sirt6 | DRSC16010 | 1.48e6 | 1.48e6 | 1.27e6 | 1.37e6 |
| Cyp4p2 | DRSC07373 | 1.06e6 | 1.01e6 | 8.39e5 | 6.89e5 |
| ERp60 | DRSC07309 | 1.37e6 | 1.53e6 | 2.42e5 | 9.92e5 |
| CG30259 | DRSC04164 | 1.54e6 | 1.58e6 | 1.25e6 | 1.37e6 |
| CG30259 | DRSC04165 | 1.50e6 | 1.55e6 | 1.27e6 | 1.25e6 |
| Iyd | DRSC10614 | 1.35e6 | 1.27e6 | 1.29e6 | 1.36e6 |
| Iyd | DRSC10615 | 1.39e6 | 1.31e6 | 1.30e6 | 1.41e6 |
| m | DRSC20181 | 1.66e6 | 1.61e6 | 9.59e5 | 1.02e6 |
| Alas | DRSC04044 | 1.30e6 | 1.39e6 | 1.06e6 | 1.12e6 |
| fkh | DRSC16949 | 1.56e6 | 1.61e6 | 1.04e6 | 1.16e6 |
| CG31661 | DRSC00296 | 1.78e6 | 1.79e6 | 1.13e6 | 1.27e6 |
| Mcm5 | DRSC16735 | 1.34e6 | 1.40e6 | 1.34e6 | 1.35e6 |
| CG2202 | DRSC19841 | 1.89e6 | 1.84e6 | 1.06e6 | 1.17e6 |
| CG6479 | DRSC10647 | 1.40e6 | 1.50e6 | 1.06e6 | 1.12e6 |
| yin | DRSC18854 | 5.60e5 | – | 8.69e5 | – |
| CG14253 | DRSC14748 | 1.45e6 | 1.50e6 | 9.77e5 | 1.10e6 |
| CG31710 | DRSC01089 | 1.38e6 | 1.39e6 | 1.07e6 | 1.16e6 |
| CG15200 | DRSC19647 | 1.58e6 | 1.50e6 | 1.08e6 | 1.15e6 |
| pug | DRSC17036 | 1.55e6 | 1.60e6 | 1.23e6 | 1.30e6 |
| CG12877 | DRSC14565 | 1.49e6 | 1.53e6 | 9.75e5 | 1.07e6 |
| thoc6 | DRSC10528 | 1.45e6 | 1.46e6 | 1.18e6 | 1.18e6 |
| PPO1 | DRSC05929 | 1.43e6 | 1.53e6 | 1.23e6 | 1.23e6 |
| Sps2 | DRSC03441 | 1.64e6 | 1.69e6 | 1.15e6 | 1.29e6 |
| Gen | DRSC09679 | 1.42e6 | 1.46e6 | 1.36e6 | 1.29e6 |
| CG8750 | DRSC11037 | 1.71e6 | 1.60e6 | 1.38e6 | 1.49e6 |
| CG2617 | DRSC02712 | 1.64e6 | 1.69e6 | 1.24e6 | 3.56e5 |
| Sbds | DRSC10992 | 1.30e6 | 1.43e6 | 1.37e6 | 1.16e6 |
| CG31211 | DRSC14953 | 1.40e6 | 1.57e6 | 1.04e6 | 1.21e6 |
| CG31211 | DRSC15344 | 1.80e6 | 1.97e6 | 1.40e6 | 1.54e6 |
| Fim | DRSC20243 | 1.44e6 | 1.51e6 | 1.05e6 | 1.23e6 |
| CG12362 | DRSC09884 | 1.60e6 | 1.70e6 | 1.28e6 | 1.38e6 |
| CG14259 | DRSC14754 | 1.43e6 | 1.50e6 | 1.04e6 | 1.13e6 |
| CG31089 | DRSC15934 | 1.40e6 | 1.43e6 | 9.58e5 | 1.05e6 |
| Dlc90F | DRSC16649 | 1.57e6 | 1.67e6 | 1.22e6 | 1.33e6 |
| bbc | DRSC06958 | 1.53e6 | 1.64e6 | 1.03e6 | 1.17e6 |
| Art6 | DRSC16583 | 1.32e6 | 1.46e6 | 1.17e6 | 1.29e6 |
| CCT5 | DRSC07357 | 1.26e6 | 1.37e6 | 1.10e6 | 1.17e6 |
| CG13198 | DRSC06323 | 1.50e6 | 1.56e6 | 1.27e6 | 1.39e6 |
| CG8067 | DRSC07065 | 1.37e6 | 1.47e6 | 1.14e6 | 1.21e6 |
| Pi3K21B | DRSC00771 | 1.39e6 | 1.42e6 | 5.40e5 | 5.62e5 |
| WRNexo | DRSC16278 | 1.59e6 | 1.65e6 | 1.28e6 | 1.38e6 |
| Nrx-1 | DRSC16184 | 1.47e6 | 1.60e6 | 1.12e6 | 1.16e6 |

Looked up above:
CG2202 [DRSC19841], Kc cell number, rep 2 → 1.84e6
For “Kc cell number, rep 1”, CG31661 [DRSC00296] shows 1.78e6
For “S2R+ cell number, rep 2”, CG33543 [DRSC00385] is entered as 1.21e6
